Results deposited as PubChem BioAssay AID1259327 (Drosophila RNAi Screening Center, 2017)

Assay: 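Data from controls in screens of zinc and manganese toxicity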
System: Drosophila S2R+ cells
Reagents: long dsRNA against Drosophila genes
Duration: 5 days (water added on day 4, read one day later)
Challenge: water added as vehicle, no metal, one day before read-out
Measurement: 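Total ATP measured by luciferase light, scaled to plate mean, duplicates averaged, then z-scored across plates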
Scale: ATP z-score: higher = more total ATP than typical wells; ATP luminescence: higher = more total ATP
Active means: 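a hit is any knock-down whose absolute ATP z-score is greater than 1.5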
Meaning of the calls: active = hit: ATP up or down; inactive = no clear ATP change
This is an unselected part of about 3,100 deposited reagents. 378 of them (12%) count as active. 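Hits include both directions; z-score sign shows ATP rise or fall; raw luminescence values are not plate-normalised.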 A number with no mark means an inactive call. Names joined by + are all predicted targets of the reagent. Not given: the amount of reagent.

| predicted target | dsRNA | ATP z-score, duplicate mean | ATP luminescence, replicate 1 (RLU) | ATP luminescence, replicate 2 (RLU) |
| --- | --- | --- | --- | --- |
| Marf (Mitochondrial assembly regulatory factor) | DRSC28101 | -0.0596 | 8.24e5 | 7.81e5 |
| Acp95EF + Spase22-23 | DRSC14102 | -1.06 | 2.62e5 | 6.21e5 |
| CG44098 | DRSC12327 | -0.334 | 8.87e5 | 8.18e5 |
| CG44098 | DRSC23643 | 1.95 (active) | 1.05e6 | 1.06e6 |
| CG44098 | DRSC24166 | 1.58 (active) | 1.02e6 | 1.01e6 |
| ZnT86D (Zinc transporter 86D) | DRSC16091 | -0.513 | 2.91e5 | 6.68e5 |
| CG9304 | DRSC04538 | -0.493 | 6.80e5 | 6.67e5 |
| CG9304 | DRSC26210 | 0.87 | 9.43e5 | 9.74e5 |
| CG12783 | DRSC14538 | 0.177 | 2.98e5 | 8.03e5 |
| RYa-R (RYamide receptor) | DRSC16757 | -0.724 | 6.42e5 | 6.20e5 |
| CG9747 | DRSC23910 | -0.954 | 6.77e5 | 7.86e5 |
| CG9747 | DRSC39676 | -1.79 (active) | 3.69e5 | 3.17e5 |
| CG5535 | DRSC10514 | -1.03 | 5.45e5 | 6.99e5 |
| CG5535 | DRSC29215 | -0.142 | 7.98e5 | 8.13e5 |
| ste24c + CG30461 | DRSC05639 | 0.0282 | 7.30e5 | 7.62e5 |
| ste24c + CG30461 | DRSC07316 | -0.49 | 5.33e5 | 6.18e5 |
| CG4942 | DRSC10462 | 1.12 | 8.48e5 | 8.54e5 |
| CG4942 | DRSC39879 | 2.23 (active) | 6.80e5 | 8.80e5 |
| CG13229 | DRSC06349 | -0.459 | 5.62e5 | 5.94e5 |
| Hk (Hyperkinetic) | DRSC24985 | -0.895 | 7.36e5 | 7.42e5 |
| Hk (Hyperkinetic) | DRSC39129 | -1.39 | 4.21e5 | 5.04e5 |
| CG3625 | DRSC00008 | -1.14 | 6.20e5 | 6.18e5 |
| CG3625 | DRSC00621 | -0.313 | 4.19e5 | 4.98e5 |
| OstDelta (Oligosaccharide transferase Delta subunit) | DRSC06980 | 0.353 | 7.03e5 | 8.36e5 |
| OstDelta (Oligosaccharide transferase Delta subunit) | DRSC27205 | -0.245 | 7.52e5 | 8.73e5 |
| CG14647 | DRSC22497 | 0.194 | 8.42e5 | 9.07e5 |
| CG14647 | DRSC39593 | -1.52 (active) | 3.94e5 | 3.29e5 |
| CG30339 | DRSC05168 | -0.413 | 8.05e5 | 5.83e5 |
| CG6052 | DRSC10574 | 0.206 | 9.69e5 | 8.79e5 |
| CG4615 | DRSC17491 | -1.19 | 5.24e5 | 4.99e5 |
| CG4615 | DRSC18376 | 1.32 | 8.44e5 | 8.40e5 |
| CG4615 | DRSC26722 | -1.04 | 9.04e5 | 9.20e5 |
| CG9555 | DRSC03264 | -0.292 | 7.04e5 | 6.86e5 |
| CG9555 | DRSC25330 | -0.0669 | 7.98e5 | 8.86e5 |
| CG1494 | DRSC20509 | 1.69 (active) | 9.68e5 | 8.80e5 |
| FMRFaR (FMRFamide Receptor) | DRSC08555 | -0.467 | 5.80e5 | 5.74e5 |
| osy (oskyddad) | DRSC14903 | -0.617 | 5.34e5 | 6.87e5 |
| osy (oskyddad) | DRSC15979 | -0.22 | 6.88e5 | 7.51e5 |
| osy (oskyddad) | DRSC15981 | 1.47 | 8.92e5 | 8.24e5 |
| Ir94d (Ionotropic receptor 94d) | DRSC21568 | -0.0892 | 5.60e5 | 5.84e5 |
| Ctl1 (Choline transporter-like 1) | DRSC08303 | -0.06 | 9.03e5 | 8.73e5 |
| Ctl1 (Choline transporter-like 1) | DRSC39447 | -1.5 (active) | 4.02e5 | 3.08e5 |
| CG8405 | DRSC07166 | -0.421 | 5.08e5 | 6.55e5 |
| CG8405 | DRSC39857 | 0.155 | 6.52e5 | 5.37e5 |
| Ptp4E (Protein tyrosine phosphatase 4E) | DRSC18701 | -0.536 | 6.57e5 | 6.43e5 |
| Ptp4E (Protein tyrosine phosphatase 4E) | DRSC36632 | -0.634 | 5.66e5 | 4.85e5 |
| Ptp4E (Protein tyrosine phosphatase 4E) | DRSC36633 | -1.04 | 4.99e5 | 4.84e5 |
| Sec61gamma (Sec61 gamma subunit) | DRSC19570 | 0.932 | 8.17e5 | 8.72e5 |
| Sec61gamma (Sec61 gamma subunit) | DRSC25563 | 1.98 (active) | 8.19e5 | 9.50e5 |
| Egfr (Epidermal growth factor receptor) | DRSC03871 | 0.35 | 7.18e5 | 8.47e5 |
| Egfr (Epidermal growth factor receptor) | DRSC04613 | 1.44 | 8.90e5 | 8.79e5 |
| Egfr (Epidermal growth factor receptor) | DRSC36621 | -1.51 (active) | 4.60e5 | 4.44e5 |
| Egfr (Epidermal growth factor receptor) | DRSC36622 | 1.61 (active) | 6.71e5 | 7.61e5 |
| C1GalTA (Core 1 Galactosyltransferase A) | DRSC03246 | 1.14 | 4.65e5 | 6.60e5 |
| comm (commissureless) | DRSC11336 | -0.565 | 8.83e5 | 7.64e5 |
| comm (commissureless) | DRSC24259 | -0.633 | 8.09e5 | 7.34e5 |
| ds (dachsous) | DRSC00815 | -0.43 | 6.58e5 | 6.64e5 |
| Vha100-4 (Vacuolar H[+] ATPase 100kD subunit 4) | DRSC16282 | -0.00258 | 3.12e5 | 7.30e5 |
| Vha100-4 (Vacuolar H[+] ATPase 100kD subunit 4) | DRSC26139 | 1.45 | 1.03e6 | 1.03e6 |
| Dolk (Dolichol kinase) | DRSC07143 | 1.27 | 7.31e5 | 7.37e5 |
| Dolk (Dolichol kinase) | DRSC39578 | -0.0578 | 4.63e5 | 4.59e5 |
| Pen (Pendulin) | DRSC03396 | 2.01 (active) | 6.38e5 | 5.99e5 |
| Pen (Pendulin) | DRSC39160 | 0.622 | 6.33e5 | 6.31e5 |
| Tsp97E (Tetraspanin 97E) | DRSC16019 | 0.429 | 7.78e5 | 7.23e5 |
| Tsp97E (Tetraspanin 97E) | DRSC28053 | -0.795 | 1.02e6 | 1.03e6 |
| Zip71B (Zinc/iron regulated transporter-related protein 71B) | DRSC09686 | -0.0612 | 8.98e5 | 8.78e5 |
| Zip71B (Zinc/iron regulated transporter-related protein 71B) | DRSC29491 | -0.00402 | 8.46e5 | 8.01e5 |
| hoe1 (hoepel1) | DRSC00265 | 0.773 | 5.09e5 | 5.59e5 |
| hoe1 (hoepel1) | DRSC00353 | -1.21 | 5.95e5 | 6.01e5 |
